Results as given in PMC3924727.
These are yes or no findings as the source states them, for the method shown. For some of these results: In cells and extracts the contact can be indirect. Some entries that bind do so weakly or less than the wild type. Where a sequence is shown, tags or fusion partners need not be part of it.

B1: OsSPX3 (SPX3), yeast two-hybrid fusions AD-SPX3 and BD-SPX3 (protein, UniProt Q7XEY9 1-277)
chain: MKFGKRLKKQVEESLPEWRDKFLAYKRLKKLVRLVSSSSGDVGGGGGGEAEFVRLLDGEVDRINAFFLEQEEEFVIRQRELQETVEKVAGGGGGGRRPAAAEMRRVRKEIVDLHGEMVLLLNYSAVNYTGLAKILKKYDKRTGRLLRLPFIEKVLRQPFFTTELISRLVRDCEATMEAIFTSSVATTAMAGDRRTWKGCSGDAGMAPMADQQGIFRNTVAALATMKELRSGSSTYGRFSLPPMAAPASPESDVLQSIRSDPHLKENGRIPSLQFFYA
B2: SPX3-YFP^N / SPX3-YFP^C (OsSPX3 BiFC fusions) (protein, UniProt Q7XEY9 1-277)
chain: B1 chain
B3: OsSPX5 (SPX5), yeast two-hybrid fusions AD-SPX5 and BD-SPX5 (protein, UniProt Q7Y0F6 1-247)
chain: MKFGKRLKRQIEESLPEWRDHFLNYKELKRRLNAVSSPDPAAEARFLALLHAEVDKFNAFFLEQEEDFVIRQRELQERIQSSSSAAAEMEGRVRREVVDLHGEMVLLLNYSSINYTGLAKILKKYDKRTGGVLRLPVIAGVLRQPFYATDLLSSLVRDCEAIMDAVFPSLPSPSAAAAAAARAAAEQAIFRNTVAALLTMQEVRSGSSTYGHFSLPPMTPLPDSDWLIQSVQPPPPPPPSSPLIIPT
B4: SPX3-MYC / SPX3-FLAG (OsSPX3 expressed from 35S-SPX3-MYC or 35S-SPX3-FLAG) (protein, UniProt Q7XEY9 1-277)
chain: B1 chain
B5: SPX5-MYC / SPX5-FLAG (OsSPX5 expressed from 35S-SPX5-MYC or 35S-SPX5-FLAG) (protein, UniProt Q7Y0F6 1-247)
chain: B3 chain
B6: SPX5-YFP^N / SPX5-YFP^C (OsSPX5 BiFC fusions) (protein, UniProt Q7Y0F6 1-247)
chain: B3 chain

Key:
[1] = biological target: T1, OsSPX3 (SPX3), yeast two-hybrid fusions AD-SPX3 and BD-SPX3 (rice (Oryza sativa)) (UniProt Q7XEY9); test: two-hybrid; Matchmaker GAL4 Two-Hybrid System3; AD and BD fusions cotransformed into yeast AH109, plated on SD/-Trp-Leu-His-Ade or SD/-Trp-Leu, 30 °C for 3-5 d
T1 sequence: B1 chain

[2] = biological target: T2, SPX3-YFP^N / SPX3-YFP^C (OsSPX3 BiFC fusions) (rice (Oryza sativa)) (UniProt Q7XEY9); test: split reporter; BiFC with YFP^N and YFP^C fusions transiently co-expressed in tobacco leaves; YFP fluorescence by confocal microscopy 48-72h after infiltration
T2 sequence: B1 chain

[3] = biological target: T3, SPX5-YFP^N / SPX5-YFP^C (OsSPX5 BiFC fusions) (rice (Oryza sativa)) (UniProt Q7Y0F6); test: as above
T3 sequence: B3 chain

[4] = biological target: OsSPX5 (SPX5), yeast two-hybrid fusions AD-SPX5 and BD-SPX5 (rice (Oryza sativa)) (UniProt Q7Y0F6); test: two-hybrid; Matchmaker GAL4 Two-Hybrid System3; AD and BD fusions cotransformed into yeast AH109, plated on SD/-Trp-Leu-His-Ade or SD/-Trp-Leu, 30 °C for 3-5 d
[5] = biological target: T4, SPX3-MYC / SPX3-FLAG (OsSPX3 expressed from 35S-SPX3-MYC or 35S-SPX3-FLAG) (rice (Oryza sativa)) (UniProt Q7XEY9); test: co-IP; MYC and FLAG fusions transiently co-expressed in tobacco (N. benthamiana) leaves; lysates (50mM Tris, 50mM NaCl, 1mM EDTA, 1mM DTT) incubated 4h with anti-FLAG antibody-conjugated beads at 4 °C; immunoblot with anti-FLAG or anti-MYC
T4 sequence: B1 chain

[6] = biological target: SPX5-MYC / SPX5-FLAG (OsSPX5 expressed from 35S-SPX5-MYC or 35S-SPX5-FLAG) (rice (Oryza sativa)) (UniProt Q7Y0F6); test: as above

Row | Binder | binding [1] | binding [2] | binding [3] | binding [5] | further results
1 | B1 | binds |  |  |  | 
2 | B2 |  | binds | binds |  | 
3 | B3 | binds |  |  |  | binding [4]: binds
4 | B4 |  |  |  | binds | 
5 | B5 |  |  |  | binds | binding [6]: binds
6 | B6 |  | binds | binds |  | 
